From US20080008719A1 (Alexion, published 2008)
No constants are given. Whether binding was seen depends on the method and setting. Binding seen in cells or lysates may run through a third protein. Here binding means that the protein was enriched with, or labelled near, the bait; the list need not be complete.

Protein sequences, listed by entry. Tags and fused reporters are not part of them. Lines headed by an entry give the natural chain unless they say otherwise; changes in a name come on top.
UniProt P23229: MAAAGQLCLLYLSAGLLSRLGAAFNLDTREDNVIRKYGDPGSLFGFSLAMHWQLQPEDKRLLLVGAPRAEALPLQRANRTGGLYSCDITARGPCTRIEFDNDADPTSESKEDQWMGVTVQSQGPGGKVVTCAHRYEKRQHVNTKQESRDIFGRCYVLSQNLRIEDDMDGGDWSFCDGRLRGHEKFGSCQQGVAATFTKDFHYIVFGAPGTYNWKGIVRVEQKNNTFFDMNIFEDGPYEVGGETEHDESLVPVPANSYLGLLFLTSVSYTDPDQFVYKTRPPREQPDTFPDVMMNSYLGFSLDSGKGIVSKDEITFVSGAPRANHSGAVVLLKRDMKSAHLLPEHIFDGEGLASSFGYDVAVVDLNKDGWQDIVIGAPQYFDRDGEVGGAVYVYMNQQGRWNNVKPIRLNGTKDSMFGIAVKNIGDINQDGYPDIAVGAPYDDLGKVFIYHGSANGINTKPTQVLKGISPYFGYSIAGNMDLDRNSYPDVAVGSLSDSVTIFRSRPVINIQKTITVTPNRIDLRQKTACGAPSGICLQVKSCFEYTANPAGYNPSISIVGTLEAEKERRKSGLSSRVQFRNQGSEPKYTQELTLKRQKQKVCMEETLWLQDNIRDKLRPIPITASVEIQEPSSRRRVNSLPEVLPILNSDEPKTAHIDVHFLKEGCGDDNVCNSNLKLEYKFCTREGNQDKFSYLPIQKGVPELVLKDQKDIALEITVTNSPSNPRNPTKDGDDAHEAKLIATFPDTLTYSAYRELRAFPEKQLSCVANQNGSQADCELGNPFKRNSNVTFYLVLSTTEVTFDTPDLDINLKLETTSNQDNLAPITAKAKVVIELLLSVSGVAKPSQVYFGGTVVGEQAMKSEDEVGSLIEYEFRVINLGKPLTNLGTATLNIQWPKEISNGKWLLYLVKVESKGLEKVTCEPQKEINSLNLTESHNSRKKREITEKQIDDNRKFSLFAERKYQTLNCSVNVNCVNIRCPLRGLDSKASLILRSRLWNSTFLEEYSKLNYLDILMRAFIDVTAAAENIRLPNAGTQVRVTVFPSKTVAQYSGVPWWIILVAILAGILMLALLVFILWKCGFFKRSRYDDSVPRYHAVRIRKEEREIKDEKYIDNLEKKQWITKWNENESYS

Target: Integrin alpha6/beta4 (human) (UniProt P23229)
Assay: immunoprecipitation from PC-3 membrane lysate with biotinylated Fab, mass spectrometry

B1: Fab 65A12 (Fab, V domains shown)
VH: EVQLQQSGPELVKPGASVKISCKTSGYTFTEYTMHWVKQSHGKSLEWIGGINPNNGGTNYNQKFKGKATLTVDKSSSTAYMELRSLTSEDSAVYYCARWTGDFDVWGAGTTVTVSS
VL: DIVMTQSQKFMSTSVGDRVSVTCKASQNVGTNVAWYQQKPGQSPDALIYSASYRYSGVPDRFTGSGSGTDFTLTITNVQSEDLADYFCQQYNSYPLTFGSGTKLDLKR
- binding: binds
